Measured values published in article PMC9359538.

Target: T1, annexin A1 (human (endogenous in A549 and 293)) (UniProt P04083)
T1 sequence: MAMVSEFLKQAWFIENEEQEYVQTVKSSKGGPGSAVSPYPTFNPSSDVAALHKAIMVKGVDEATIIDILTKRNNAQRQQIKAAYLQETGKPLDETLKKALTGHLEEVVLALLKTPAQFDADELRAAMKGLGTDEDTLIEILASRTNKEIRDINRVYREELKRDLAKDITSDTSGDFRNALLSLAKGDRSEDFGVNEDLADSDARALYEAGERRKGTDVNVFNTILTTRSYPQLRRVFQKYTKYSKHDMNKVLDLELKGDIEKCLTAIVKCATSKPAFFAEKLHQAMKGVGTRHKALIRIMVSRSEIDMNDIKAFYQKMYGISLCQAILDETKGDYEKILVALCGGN
Test: co-IP; lysates of 293 cells transfected with Flag-tagged gE constructs (48 h); IP with anti-Anx-A1 Ab; western blot for Flag

Substance	binding
Flag-tagged gE without the cytoplasmic tail (Δ447–550) (from UniProt P04488) (domain or fragment)	binds
Flag-tagged gE without the extracellular domain (Δ1–421) (from UniProt P04488) (domain or fragment)	no binding

No constants are given. Whether binding was seen depends on the method and setting. Binding seen in cells or lysates may run through a third protein. A result given as binding can be weak or reduced; the word gives no strength.
